Reference: patent publication US8809367B2, “1-1-Oxo-1,2,3,4-tetrahydroisoquinolin-7-yl)urea derivatives as N-formyl peptide receptor like-1 (FPRL-1) receptor modulators” (Allergan, Inc., priority 2011, dated 2014)
Structures were worked out from names or drawings and are uncertain.

Protein sequences, listed by entry. Tags and fused reporters are not part of them.
UniProt P25090, whole entry: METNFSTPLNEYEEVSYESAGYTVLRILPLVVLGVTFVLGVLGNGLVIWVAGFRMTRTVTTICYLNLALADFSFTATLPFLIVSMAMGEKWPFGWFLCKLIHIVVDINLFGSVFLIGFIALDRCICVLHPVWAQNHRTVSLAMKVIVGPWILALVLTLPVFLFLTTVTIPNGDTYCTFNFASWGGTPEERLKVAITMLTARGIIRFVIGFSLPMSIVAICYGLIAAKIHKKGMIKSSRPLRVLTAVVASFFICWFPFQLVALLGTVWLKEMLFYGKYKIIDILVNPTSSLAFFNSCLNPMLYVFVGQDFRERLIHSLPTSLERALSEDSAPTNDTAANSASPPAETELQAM

Molecular target: FPRL-1 (Homo sapiens, UniProt P25090)
Test: compound-induced calcium activity on FLIPR Tetra in CHO-Ga16 cells stably expressing FPRL1
Assay type: cell-based

CC(=O)c1ccc(NC(=O)Nc2ccc3c(c2)C(=O)N(CCc2c[nH]cn2)C(c2ccc(Cl)cn2)C3)cc1 (centres unmarked)
FPRL-1 Ga16-CHO (eff) (efficacy value in brackets under EC50): (81)
EC50 (read-out: FPRL-1 Ga16-CHO EC50, tested at 0.61 to 10,000 nM): 38.4 nM
